Reference: paper PMC7392006
For at least one entry, the source does not settle the construct or the ends of the probe. A negative result means that nothing was seen under these conditions. For part of these data: Results from cells or extracts need not show a direct contact.

How the values were obtained:
[1] = biological target: p53 (recombinant, Active Motif 81091) (Homo sapiens) (UniProt P04637); test: EMSA; conditions: + JMJD2D (E. coli cell-free), binding abolished; 5 mM Hepes pH 7.6, 100 mM KCl, 5 mM MgCl2, 1.25 mM DTT, 0.05% NP-40, 2.25% glycerol, 1 ug poly(dI.dC); 6% polyacrylamide gel; temperature not stated; commercial protein; label: biotin end label
[2] = biological target: endogenous p53 (nuclear extract) (UniProt P04637); test: EMSA; conditions: 5 mM Hepes pH 7.6, 100 mM KCl, 5 mM MgCl2, 1.25 mM DTT, 0.05% NP-40, 2.25% glycerol, 1 ug poly(dI.dC), 6% polyacrylamide gel, temperature not stated, protein in an extract, label: biotin end label
[3] = SK-Hep1 nuclear extract, increased by JMJD2D knockdown, inhibited by JMJD2D restoration

Row | Sequence | binding result [1] | binding result ([2]; + JMJD2D wild type (E. coli cell-free), binding abolished, legend says endogenous p53) | binding result ([2]; + JMJD2D-S200M (E. coli cell-free), binding abolished, legend says endogenous p53) | binding result [2, 3]
1 | CTGGCCGTCAGGAACATGTCCCAACATGTTGAGCTCT (double strand) [p21 promoter p53 element] | no binding | no binding | no binding | binds
2 | GCGCGCCTGCAAGTCCTGACTTGTCCGCGGCG (double strand) [PUMA promoter p53 element] | no binding |  |  | binds
